For the experiment, the target named is alpha-enolase (ENO1) (human (endogenous in endometrial stromal cells from patients)) (UniProt P06733). Description: co-IP; primary antibody against KAT2A or ENO1 added to the extracted protein, overnight at 4°C; protein A/G beads 4°C, 2 h; blot for ENO1 and KAT2A.

By UniProt entry, the sequences of proteins in these tests, tags left out.
UniProt P06733: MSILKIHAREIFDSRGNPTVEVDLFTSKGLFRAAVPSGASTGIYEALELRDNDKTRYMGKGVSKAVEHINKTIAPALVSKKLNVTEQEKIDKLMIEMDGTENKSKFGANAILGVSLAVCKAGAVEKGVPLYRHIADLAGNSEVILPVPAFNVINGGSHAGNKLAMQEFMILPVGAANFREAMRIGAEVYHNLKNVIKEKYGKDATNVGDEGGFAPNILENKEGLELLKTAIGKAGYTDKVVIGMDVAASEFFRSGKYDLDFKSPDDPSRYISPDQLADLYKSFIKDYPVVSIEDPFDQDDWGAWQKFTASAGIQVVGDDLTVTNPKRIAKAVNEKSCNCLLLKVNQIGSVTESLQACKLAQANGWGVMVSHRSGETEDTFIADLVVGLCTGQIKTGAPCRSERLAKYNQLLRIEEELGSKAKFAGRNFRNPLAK
UniProt Q92830: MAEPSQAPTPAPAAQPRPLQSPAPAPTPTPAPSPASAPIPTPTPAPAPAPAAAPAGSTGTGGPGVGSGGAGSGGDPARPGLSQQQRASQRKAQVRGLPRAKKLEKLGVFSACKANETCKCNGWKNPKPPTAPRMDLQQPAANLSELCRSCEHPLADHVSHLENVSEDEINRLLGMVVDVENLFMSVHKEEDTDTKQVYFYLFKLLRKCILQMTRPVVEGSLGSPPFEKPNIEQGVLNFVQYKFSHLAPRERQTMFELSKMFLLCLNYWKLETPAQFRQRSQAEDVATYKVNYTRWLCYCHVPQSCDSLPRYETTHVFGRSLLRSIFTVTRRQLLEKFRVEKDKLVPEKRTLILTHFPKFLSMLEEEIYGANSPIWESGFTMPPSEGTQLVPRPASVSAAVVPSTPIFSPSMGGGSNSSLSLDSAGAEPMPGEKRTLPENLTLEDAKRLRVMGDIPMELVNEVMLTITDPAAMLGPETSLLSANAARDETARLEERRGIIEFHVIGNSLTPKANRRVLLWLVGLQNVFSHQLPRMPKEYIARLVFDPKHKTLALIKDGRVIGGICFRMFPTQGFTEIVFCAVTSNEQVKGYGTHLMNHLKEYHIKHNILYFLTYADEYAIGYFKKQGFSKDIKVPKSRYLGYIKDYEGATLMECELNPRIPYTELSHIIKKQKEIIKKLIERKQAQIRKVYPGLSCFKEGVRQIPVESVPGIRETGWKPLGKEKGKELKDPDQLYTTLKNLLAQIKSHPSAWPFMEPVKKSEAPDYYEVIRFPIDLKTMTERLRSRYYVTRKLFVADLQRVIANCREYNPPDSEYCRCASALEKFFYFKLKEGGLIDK

Results are given in words; binding and its absence hold for the method and conditions named. In cells and extracts the contact can be indirect. Some entries that bind do so weakly or less than the wild type.

For “lysine acetyltransferase 2A (KAT2A) (from UniProt Q92830 1-837) (enzyme)”, the binding result was “binds”.

The values above are taken from article PMC10997078.
